Source: patent US20050048512A1 (published 2005)
Values joined by “and” are separate entries in the source; they are usually repeats but may differ in a detail not shown here. Equal entries are not always repeated.

B1: CD28-A7 (designed binder)
chain: CGPGRFQCESGQCIPATWVCDGENDCVDDSDEKSCATTAPTCGSGQFRCSNGNCLPLRLGCDGVDDCGDSSDEPLDPCAATVRT
notes: LDL receptor A-domain dimer; also called CD28 7; CD28 dimer clone 7

How the values were obtained:
CD28 on human PBMC = CD28 on human PBMC (human, UniProt P10747 19-220); test: cell-based or functional assay
CD28 on monkey PBMC = CD28 on monkey PBMC (monkey (cynomolgus), UniProt Q0PDN3 19-220); test: cell-based or functional assay
CD28 [1] = target: T1, CD28 (UniProt P10747 19-152, limits assumed); test: Biacore, CD28 on CM5 chip, 0.5 and 5 uM protein in flow
T1 construct: Purified CD28 immobilized by NHS/EDC coupling (Biacore) or hydrophobic adsorption (ELISA); also called target protein CD28

CD28 [2] = target: T1, CD28; test: ELISA, 10 ng CD28 per well, serial dilutions of protein, anti-HA-HRP detection
[3] = target: T2, CD20 on Raji or Daudi cells (UniProt P11836 1-297, limits assumed); test: phage clone on Raji or Daudi cells with or without 1 mg/mL Rituxan
T2 construct: whole, on cells
T2 sequence (looked up): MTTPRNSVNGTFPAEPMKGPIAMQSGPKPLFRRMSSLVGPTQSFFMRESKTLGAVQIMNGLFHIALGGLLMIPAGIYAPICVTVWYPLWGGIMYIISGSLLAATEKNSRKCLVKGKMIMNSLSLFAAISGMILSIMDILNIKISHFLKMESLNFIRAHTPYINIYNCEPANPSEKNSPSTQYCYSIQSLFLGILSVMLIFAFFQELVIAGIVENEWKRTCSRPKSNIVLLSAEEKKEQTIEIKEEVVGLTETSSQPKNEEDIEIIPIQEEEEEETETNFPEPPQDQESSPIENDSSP

Binder | IC50, PBMC assay on human cells (3H thymidine incorporation) (CD28 on human PBMC) | IC50, PBMC assay on monkey cells (3H thymidine incorporation) (CD28 on monkey PBMC) [nM] | Kd (CD28 [1]) [nM] | ELISA (column head; quantity not named) (CD28 [2]) | binding result [3]
B1 | 2 nM and 14 ng/ml | 2 | 110 | 1.2e-06 | 
CRSGEFKCHGTRPCVPQRWVCDGDDDCVDGSDEKSCETPARR (designed binder) [CD20 binding sequence 6 (first listed)] |  |  |  |  | binds
